This note sets out measurements from publication PMC12159506.

For the assay, the target named is T1, SmBiT-C-CaSR-AA (CASR LL1013-1014AA mutation), P41180.
T1 chain: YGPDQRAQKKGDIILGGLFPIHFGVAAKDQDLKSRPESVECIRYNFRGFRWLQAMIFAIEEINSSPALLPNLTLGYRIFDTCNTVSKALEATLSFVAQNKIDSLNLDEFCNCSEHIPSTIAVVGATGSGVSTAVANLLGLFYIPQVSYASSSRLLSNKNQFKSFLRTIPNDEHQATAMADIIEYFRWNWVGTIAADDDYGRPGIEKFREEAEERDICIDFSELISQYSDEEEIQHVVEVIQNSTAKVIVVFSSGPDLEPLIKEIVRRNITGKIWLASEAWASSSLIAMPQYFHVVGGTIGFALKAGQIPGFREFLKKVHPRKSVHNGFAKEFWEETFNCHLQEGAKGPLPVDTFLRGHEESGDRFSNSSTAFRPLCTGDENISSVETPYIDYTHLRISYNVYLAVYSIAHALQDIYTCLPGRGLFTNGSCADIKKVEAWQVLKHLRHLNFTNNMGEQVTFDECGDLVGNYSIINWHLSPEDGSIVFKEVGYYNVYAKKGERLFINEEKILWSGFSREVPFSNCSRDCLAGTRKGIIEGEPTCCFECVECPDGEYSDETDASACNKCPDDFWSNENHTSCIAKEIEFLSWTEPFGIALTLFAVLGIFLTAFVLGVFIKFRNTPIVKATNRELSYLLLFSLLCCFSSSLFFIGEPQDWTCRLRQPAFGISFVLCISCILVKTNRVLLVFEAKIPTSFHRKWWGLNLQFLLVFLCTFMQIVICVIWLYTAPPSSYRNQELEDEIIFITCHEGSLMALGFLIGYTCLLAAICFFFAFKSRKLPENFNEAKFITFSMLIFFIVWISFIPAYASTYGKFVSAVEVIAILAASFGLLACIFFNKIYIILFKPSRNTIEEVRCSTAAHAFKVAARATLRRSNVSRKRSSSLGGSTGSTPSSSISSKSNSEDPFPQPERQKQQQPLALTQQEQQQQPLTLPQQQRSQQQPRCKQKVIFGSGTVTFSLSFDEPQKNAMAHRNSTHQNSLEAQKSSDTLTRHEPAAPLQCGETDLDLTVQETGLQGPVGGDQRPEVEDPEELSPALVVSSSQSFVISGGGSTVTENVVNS
Nature of the assay: NanoBiT split-luciferase. The settings on record: chain shown with the change; N = 6; parent: est. 6.0; read off a plot.

B1: m3; m1 AP2σ:R15H; CaSR:L1013A; CaSR:L1014A (protein)
chain: MIRFILIQNRAGKTHLAKWYMQFDDDEKQKLIEEVHAVVTVRDAKHTNFVEFRNFKIIYRRYAGLYFCICVDVNDNNLAYLEAIHNFVEVLNEYFHNVCELDLVFNFYKVYTVVDEMFLAGEIRETSQTKVLKQLLMLQSLE
For B1, the response came out at 3.8.
